Results reported in paper PMC11264600.
These are yes or no findings as the source states them, for the method shown. Binding seen in cells or lysates may run through a third protein. Some results given as binding are weak or reduced against the parent protein; the word gives no strength.

Amino acid sequences for entries named in this document (tags omitted).
UniProt Q08211: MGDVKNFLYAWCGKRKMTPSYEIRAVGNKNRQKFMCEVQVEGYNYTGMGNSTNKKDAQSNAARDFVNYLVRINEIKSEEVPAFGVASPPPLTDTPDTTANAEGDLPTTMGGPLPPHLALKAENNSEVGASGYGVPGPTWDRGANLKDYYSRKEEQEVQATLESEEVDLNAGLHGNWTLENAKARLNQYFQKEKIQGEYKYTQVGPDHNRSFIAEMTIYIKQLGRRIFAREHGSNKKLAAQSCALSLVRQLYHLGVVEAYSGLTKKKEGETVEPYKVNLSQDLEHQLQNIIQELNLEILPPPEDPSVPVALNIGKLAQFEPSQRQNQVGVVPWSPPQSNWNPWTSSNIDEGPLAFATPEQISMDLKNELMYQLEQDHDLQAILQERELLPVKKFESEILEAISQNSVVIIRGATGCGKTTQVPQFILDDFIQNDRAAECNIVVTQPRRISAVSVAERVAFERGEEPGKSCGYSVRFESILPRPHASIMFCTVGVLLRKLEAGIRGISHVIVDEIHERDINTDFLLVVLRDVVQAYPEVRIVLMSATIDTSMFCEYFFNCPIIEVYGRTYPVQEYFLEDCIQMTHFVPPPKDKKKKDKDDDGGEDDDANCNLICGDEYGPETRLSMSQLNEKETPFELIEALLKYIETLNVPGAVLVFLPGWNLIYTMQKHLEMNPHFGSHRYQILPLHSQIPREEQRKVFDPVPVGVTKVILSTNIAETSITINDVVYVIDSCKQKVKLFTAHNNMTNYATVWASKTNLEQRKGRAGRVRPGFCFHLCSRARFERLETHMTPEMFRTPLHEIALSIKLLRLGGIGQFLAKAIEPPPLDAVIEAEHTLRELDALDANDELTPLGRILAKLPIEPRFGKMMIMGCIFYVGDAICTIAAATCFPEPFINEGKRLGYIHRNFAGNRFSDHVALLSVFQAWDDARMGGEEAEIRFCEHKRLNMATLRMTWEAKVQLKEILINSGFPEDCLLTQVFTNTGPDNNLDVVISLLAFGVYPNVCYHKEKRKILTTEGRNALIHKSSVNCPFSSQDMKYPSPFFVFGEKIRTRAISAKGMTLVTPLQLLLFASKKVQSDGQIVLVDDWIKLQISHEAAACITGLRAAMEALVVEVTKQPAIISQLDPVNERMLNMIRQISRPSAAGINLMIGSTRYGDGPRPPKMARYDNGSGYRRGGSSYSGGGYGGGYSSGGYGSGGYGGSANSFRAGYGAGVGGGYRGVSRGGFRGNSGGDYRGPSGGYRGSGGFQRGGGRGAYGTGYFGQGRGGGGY
UniProt P03496: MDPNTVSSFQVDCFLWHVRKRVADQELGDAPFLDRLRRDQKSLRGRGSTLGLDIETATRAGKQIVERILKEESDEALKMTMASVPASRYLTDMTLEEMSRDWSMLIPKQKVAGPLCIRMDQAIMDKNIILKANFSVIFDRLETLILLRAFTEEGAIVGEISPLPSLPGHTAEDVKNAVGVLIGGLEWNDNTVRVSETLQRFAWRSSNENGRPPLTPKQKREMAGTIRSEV

Target: DHX9 (DExH-box helicase 9) (human (endogenous in A549 or HEK293T)) (UniProt Q08211)
Assay: co-IP

With “influenza A virus nonstructural protein 1 (NS1) (from UniProt P03496 1-230)” the binding was “binds”.
